# Results reported in the supplement of paper PMC8728848.
# Some of the results follow.
# B1: XTP3-B-MRH1 (Homo sapiens), Q96DZ1 (protein)
# chain: LLEPLFKQSSCSYRIESYWTYEVCHGKHIRQYHEEKETGQKINIHEYYLGNMLAKNLLFEKEREAEEKEKSNEIPTKNIEGQMTPYYPVGMGNGTPCSLKQNRPRSSTVMYICHPESKHEILSVAEVTTCEYEVVILTPLLCSHPKYRFRA
# Key:
# Test in all cases: glycan array binding signal (z-score within array); higher = stronger binding
# Conditions in all cases: glycan notation: IUPAC condensed, linker removed
# GalNAc(b1-4)GlcNAc = molecular target: GalNAc(b1-4)GlcNAc
# Outline: (§1)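 Arrays were curated from the Consortium for Functional Glycomics database, 3228 in total, and kept only where the protein sequence was available. Binding is expressed as a within-array Z-score. This score was averaged across arrays of the same protein sequence at different concentrations or buffers and across linkers, and negative values can be read as non-binding.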
# [1] = molecular target: GalNAc(b1-4)GlcNAc(b1-2)Man
# Outline: as §1
# [2] = molecular target: GalNAc(b1-4)GlcNAc(b1-2)Man(a1-3)[GalNAc(b1-4)GlcNAc(b1-2)Man(a1-6)]Man(b1-4)GlcNAc(b1-4)GlcNAc
# Outline: as §1
# [3] = molecular target: GalNAc(b1-4)GlcNAc(b1-3)GalNAc(b1-4)GlcNAc
# Outline: as §1
# GalNAc(b1-4)GlcNAc6S = molecular target: GalNAc(b1-4)GlcNAc6S
# Outline: as §1
# GalNAc(b1-6)GalNAc = molecular target: GalNAc(b1-6)GalNAc
# Outline: as §1
# GalNAc3S(b1-4)GlcNAc = molecular target: GalNAc3S(b1-4)GlcNAc
# Outline: as §1
# GalNAc3S(b1-4)GlcNAc3S = molecular target: GalNAc3S(b1-4)GlcNAc3S
# Outline: as §1
# [4] = molecular target: GalNAc3S(b1-4)[Fuc(a1-3)]GlcNAc
# Outline: as §1
# GalNAc4S6S(b1-4)GlcNAc = molecular target: GalNAc4S6S(b1-4)GlcNAc
# Outline: as §1
# GalNAc6S(b1-4)GlcNAc = molecular target: GalNAc6S(b1-4)GlcNAc
# Outline: as §1
# Glc(a1-4)Glc = molecular target: Glc(a1-4)Glc
# Outline: as §1
# [5] = molecular target: Glc(a1-4)Glc(a1-4)Glc(a1-4)Glc
# Outline: as §1
# Glc(a1-6)Glc(a1-6)Glc = molecular target: Glc(a1-6)Glc(a1-6)Glc
# Outline: as §1
# [6] = molecular target: Glc(a1-6)Glc(a1-6)Glc(a1-6)Glc
# Outline: as §1
# Glc(b1-4)Glc = molecular target: Glc(b1-4)Glc
# Outline: as §1
# Glc(b1-6)Glc = molecular target: Glc(b1-6)Glc
# Outline: as §1
# GlcA(b1-3)Gal = molecular target: GlcA(b1-3)Gal
# Outline: as §1
# GlcA(b1-3)GlcNAc = molecular target: GlcA(b1-3)GlcNAc
# Outline: as §1
# GlcA(b1-6)Gal = molecular target: GlcA(b1-6)Gal
# Outline: as §1
# [7] = molecular target: GlcA3S(b1-3)Gal(b1-4)GlcNAc(b1-2)Man
# Outline: as §1
# [8] = molecular target: GlcA3S(b1-3)Gal(b1-4)GlcNAc(b1-3)Gal(b1-4)Glc
# Outline: as §1
# [9] = molecular target: GlcNAc(a1-3)Gal(b1-4)GlcNAc
# Outline: as §1
# [10] = molecular target: GlcNAc(a1-4)Gal(b1-3)GlcNAc
# Outline: as §1
# [11] = molecular target: GlcNAc(a1-4)Gal(b1-4)GalNAc
# Outline: as §1
# [12] = molecular target: GlcNAc(a1-4)Gal(b1-4)GlcNAc
# Outline: as §1
# [13] = molecular target: GlcNAc(a1-4)Gal(b1-4)GlcNAc(b1-3)Gal(b1-4)Glc
# Outline: as §1
# [14] = molecular target: GlcNAc(a1-4)Gal(b1-4)GlcNAc(b1-3)Gal(b1-4)GlcNAc
# Outline: as §1
# [15] = molecular target: GlcNAc(a1-4)Gal(b1-4)GlcNAc(b1-3)Gal(b1-4)GlcNAc(b1-3)Gal(b1-4)GlcNAc
# Outline: as §1
# [16] = molecular target: GlcNAc(a1-4)Gal(b1-4)GlcNAc(b1-3)Gal(b1-4)[Fuc(a1-3)]GlcNAc(b1-3)Gal(b1-4)[Fuc(a1-3)]GlcNAc
# Outline: as §1
# [17] = molecular target: GlcNAc(a1-6)Gal(b1-4)GlcNAc
# Outline: as §1
# [18] = molecular target: GlcNAc(b1-2)Gal(b1-3)GalNAc
# Outline: as §1
# [19] = molecular target: GlcNAc(b1-2)Man(a1-3)[GlcNAc(b1-2)Man(a1-6)]Man(b1-4)GlcNAc(b1-4)GlcNAc
# Outline: as §1
# [20] = molecular target: GlcNAc(b1-2)Man(a1-3)[GlcNAc(b1-2)Man(a1-6)]Man(b1-4)GlcNAc(b1-4)[Fuc(a1-6)]GlcNAc
# Outline: as §1
# [21] = molecular target: GlcNAc(b1-2)Man(a1-3)[GlcNAc(b1-4)][GlcNAc(b1-2)Man(a1-6)]Man(b1-4)GlcNAc(b1-4)GlcNAc
# Outline: as §1
# [22] = molecular target: GlcNAc(b1-2)Man(a1-3)[GlcNAc(b1-4)][GlcNAc(b1-2)Man(a1-6)]Man(b1-4)GlcNAc(b1-4)[Fuc(a1-6)]GlcNAc
# Outline: as §1
# [23] = molecular target: GlcNAc(b1-2)[GlcNAc(b1-4)]Man(a1-3)[GlcNAc(b1-2)Man(a1-6)]Man(b1-4)GlcNAc(b1-4)GlcNAc
# Outline: as §1
# [24] = molecular target: GlcNAc(b1-2)[GlcNAc(b1-4)]Man(a1-3)[GlcNAc(b1-4)][GlcNAc(b1-2)Man(a1-6)]Man(b1-4)GlcNAc(b1-4)GlcNAc
# Outline: as §1
# [25] = molecular target: GlcNAc(b1-2)[GlcNAc(b1-4)]Man(a1-3)[GlcNAc(b1-4)][GlcNAc(b1-2)[GlcNAc(b1-6)]Man(a1-6)]Man(b1-4)GlcNAc(b1-4)GlcNAc
# Outline: as §1
# [26] = molecular target: GlcNAc(b1-2)[GlcNAc(b1-4)]Man(a1-3)[GlcNAc(b1-4)][GlcNAc(b1-2)[GlcNAc(b1-6)]Man(a1-6)]Man(b1-4)GlcNAc(b1-4)[Fuc(a1-6)]GlcNAc
# Outline: as §1
# [27] = molecular target: GlcNAc(b1-2)[GlcNAc(b1-6)]Man(a1-6)[GlcNAc(b1-2)Man(a1-3)]Man(b1-4)GlcNAc(b1-4)GlcNAc
# Outline: as §1
# [28] = molecular target: GlcNAc(b1-2)[GlcNAc(b1-6)]Man(a1-6)[GlcNAc(b1-2)Man(a1-3)]Man(b1-4)GlcNAc(b1-4)[Fuc(a1-6)]GlcNAc
# Outline: as §1
# [29] = molecular target: GlcNAc(b1-2)[GlcNAc(b1-6)]Man(a1-6)[GlcNAc(b1-4)][GlcNAc(b1-2)Man(a1-3)]Man(b1-4)GlcNAc(b1-4)GlcNAc
# Outline: as §1
# GlcNAc(b1-3)Fuc = molecular target: GlcNAc(b1-3)Fuc
# Outline: as §1
# GlcNAc(b1-3)Gal = molecular target: GlcNAc(b1-3)Gal
# Outline: as §1
binder,measurement,setting,value
B1,glycan array binding signal (z-score),GalNAc(b1-4)GlcNAc,0.047
same,glycan array binding signal (z-score),[1],0.486
same,glycan array binding signal (z-score),[2],1.34
same,glycan array binding signal (z-score),[3],-0.607
same,glycan array binding signal (z-score),GalNAc(b1-4)GlcNAc6S,-0.537
same,glycan array binding signal (z-score),GalNAc(b1-6)GalNAc,-1.91
same,glycan array binding signal (z-score),GalNAc3S(b1-4)GlcNAc,-0.602
same,glycan array binding signal (z-score),GalNAc3S(b1-4)GlcNAc3S,3.07
same,glycan array binding signal (z-score),[4],0.269
same,glycan array binding signal (z-score),GalNAc4S6S(b1-4)GlcNAc,-0.682
same,glycan array binding signal (z-score),GalNAc6S(b1-4)GlcNAc,0.29
same,glycan array binding signal (z-score),Glc(a1-4)Glc,-0.398
same,glycan array binding signal (z-score),[5],-0.669
same,glycan array binding signal (z-score),Glc(a1-6)Glc(a1-6)Glc,-0.837
same,glycan array binding signal (z-score),[6],-0.891
same,glycan array binding signal (z-score),Glc(b1-4)Glc,-0.349
same,glycan array binding signal (z-score),Glc(b1-6)Glc,-1.1
same,glycan array binding signal (z-score),GlcA(b1-3)Gal,0.324
same,glycan array binding signal (z-score),GlcA(b1-3)GlcNAc,-0.414
same,glycan array binding signal (z-score),GlcA(b1-6)Gal,0.841
same,glycan array binding signal (z-score),[7],-0.014
same,glycan array binding signal (z-score),[8],-0.47
same,glycan array binding signal (z-score),[9],0.433
same,glycan array binding signal (z-score),[10],-0.631
same,glycan array binding signal (z-score),[11],-0.588
same,glycan array binding signal (z-score),[12],-0.401
same,glycan array binding signal (z-score),[13],-0.158
same,glycan array binding signal (z-score),[14],-0.549
same,glycan array binding signal (z-score),[15],0.916
same,glycan array binding signal (z-score),[16],1.52
same,glycan array binding signal (z-score),[17],-0.257
same,glycan array binding signal (z-score),[18],-1.24
same,glycan array binding signal (z-score),[19],0.137
same,glycan array binding signal (z-score),[20],-0.552
same,glycan array binding signal (z-score),[21],-0.313
same,glycan array binding signal (z-score),[22],0.083
same,glycan array binding signal (z-score),[23],0.857
same,glycan array binding signal (z-score),[24],-0.731
same,glycan array binding signal (z-score),[25],-0.739
same,glycan array binding signal (z-score),[26],-0.423
same,glycan array binding signal (z-score),[27],-0.739
same,glycan array binding signal (z-score),[28],-0.964
same,glycan array binding signal (z-score),[29],-0.788
same,glycan array binding signal (z-score),GlcNAc(b1-3)Fuc,0.326
same,glycan array binding signal (z-score),GlcNAc(b1-3)Gal,-0.445

# Rewritten with bars between the fields: part of the list above
binder | measurement | setting | value
B1 | glycan array binding signal (z-score) | [5] | -0.669
same | glycan array binding signal (z-score) | Glc(a1-6)Glc(a1-6)Glc | -0.837
same | glycan array binding signal (z-score) | [6] | -0.891
